Values from PubChem BioAssay AID504786 (Drosophila RNAi Screening Center, 2011)
The deposit covers about 21,000 reagents; shown is a random part of those that have a named target and a result. 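Primary screen; positive scores mean lost reporter signal, so the sign may be inverted from the usual convention.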 Further read-outs or replicates are left out here.

Screen: 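Fly genes required for HIF-dependent transcription when hypoxia is mimicked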 (primary screen)
Cell system: Drosophila S2 cells with a stable HIF luciferase reporter
Reagent: long dsRNA against Drosophila genes, about 0.2 µg dsRNA per well of a 384-well plate
Duration: three days of knock-down, then 20 h of DFO before reading
Challenge: desferrioxamine (DFO) at 100 µM, an iron chelator that mimics hypoxia, for 20 h
Measurement: 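Firefly luciferase driven by the mouse ldh-a hypoxia-response element, measured after 20 h of 100 µM DFO; z-scores per plate, higher means more signal lost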
Scale: z-score: higher = stronger loss of HIF reporter signal

For CG1889 [DRSC18195], how do the results read?
z-score, replicate 1: -0.3

For CG18367 [DRSC06545], what was measured?
z-score, replicate 1: -0.4

How did the screen score rho [DRSC08734]?
z-score, replicate 1: -0.3

For Kdm3 [DRSC16393], what was measured?
z-score, replicate 1: -0.3

With CG4880 [DRSC19923], how do the results read?
z-score, replicate 1: -0.2

What did the screen give for CG42336 [DRSC05273]?
z-score, replicate 1: -0.2

For CG42336 [DRSC06332], how do the results read?
z-score, replicate 1: -0.2

What did the screen give for CG42336 [DRSC06333]?
z-score, replicate 1: -0.2

What did the screen give for tgy [DRSC20045]?
z-score, replicate 1: -0.4

What is on record for Glut1 [DRSC07927]?
z-score, replicate 1: 0

Which result is listed for Glut1 [DRSC08662]?
z-score, replicate 1: -0.2

What is on record for CG2924 [DRSC18525]?
z-score, replicate 1: -0.4

Which result is listed for CtsB [DRSC19361]?
z-score, replicate 1: -0.1

With CG31099 [DRSC14252], how do the results read?
z-score, replicate 1: -0.1

What is on record for Atg1 [DRSC09809]?
z-score, replicate 1: -0.3

For Atg1 [DRSC09810], what was measured?
z-score, replicate 1: -0.3
